Measurements from patent publication US7141393 (KABUSHIKI KAISHA HAYASHIBARA SEIBUTSU KAGAKU KENKYUJO, dated 2006).
These are yes or no findings as the source states them, for the method shown. Some results given as binding are weak or reduced against the parent protein; the word gives no strength.

Assays:
[1] = target: T1, IL-18R protein (aqueous solution obtained from L428 cells by the method in Example 1) (human) (UniProt Q13478); experiment: immunoaffinity chromatography, antibody immobilised on Sepharose 4B, elution at pH 10.8
T1 sequence (looked up): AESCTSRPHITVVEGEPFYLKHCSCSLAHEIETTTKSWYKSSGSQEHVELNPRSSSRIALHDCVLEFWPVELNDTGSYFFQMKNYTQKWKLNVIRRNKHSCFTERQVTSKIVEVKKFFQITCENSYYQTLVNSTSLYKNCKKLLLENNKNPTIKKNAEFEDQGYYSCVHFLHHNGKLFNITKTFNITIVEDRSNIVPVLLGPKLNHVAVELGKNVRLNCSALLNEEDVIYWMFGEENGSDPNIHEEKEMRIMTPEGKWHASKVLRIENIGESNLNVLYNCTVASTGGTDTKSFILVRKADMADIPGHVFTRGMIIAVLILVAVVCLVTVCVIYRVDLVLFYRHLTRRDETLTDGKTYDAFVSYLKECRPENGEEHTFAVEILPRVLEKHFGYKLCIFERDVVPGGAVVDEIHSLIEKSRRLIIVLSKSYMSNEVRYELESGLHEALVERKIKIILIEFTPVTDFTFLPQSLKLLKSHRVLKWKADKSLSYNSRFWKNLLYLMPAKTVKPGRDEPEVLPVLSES

[2] = target: T1, IL-18R protein (aqueous solution obtained from L428 cells by the method in Example 1) (human); experiment: inhibition of 125I-labelled IL-18 binding to IL-18R protein in solution (FIG. 1 legend)
[3] = target: T1, IL-18R protein (aqueous solution obtained from L428 cells by the method in Example 1) (human); experiment: Western blot, non-reducing SDS-PAGE (FIG. 2 legend)
[4] = target: T1, IL-18R protein (aqueous solution obtained from L428 cells by the method in Example 1) (human); experiment: Western blot, non-reducing SDS-PAGE, antibody at 10 ug/ml
[5] = target: T1, IL-18R protein (aqueous solution obtained from L428 cells by the method in Example 1) (human); experiment: inhibition of 125I-labelled IL-18 binding to IL-18R protein in solution, PEG precipitation

Measured: binding

B1: monoclonal antibody MAb #117-10C (antibody, V domains shown)
VH: EVQLQQSGAELVKPGASVKLSCTTSGFNIKDIYIYWVKQRPEQGLEWVGRIDPANGDTKYGPNFQDKATITADTSSNTAYLQLRSLTSEDTAVYYCARRGNYGAGFGYWGQGTLVTVSA
VL: DIQMTQSPASLSASVGETVTITCRASGNIHNYLAWYQQRQGKSPQILVYNAKTLADGVSSRFSGSGSGTQYSLNINSLQPEDFGTYFCQHFWSTPYTFGGGTKLEIKR
notes: Mouse hybridoma antibody purified from ascites
binds: [1] | [2] | [3] | [4] | [5]
